No constants are given. Whether binding was seen depends on the method and setting. Some binding calls cover weakened binding; strength is not graded here.

The target of this assay is iRFP-pMagH-C-term scFvGCN4. Put plainly: inferred from relocalisation of fluorescence in HeLa cells after light (nMagH with pMagH).

B1: N-term scFvGCN4-nMagH-fuRed (protein)
chain: MGPDIVMTQSPSSLSASVGDRVTITCRSSTGAVTTSNYASWVQEKPGKLFKGLIGGTNNRAPGVPSRFSGSLIGDKATLTISSLQPEDFATYFCALWYSNHWVFGQGTKVELKRGGGGSGGGGSGGGGSSGGGSEVKLLESGGGLVQPGGSLKLSCAVSGFSLTDYGVNWVRQAPGRGLEWIGVIWGDGITDYNSAGGGGSGGGGSHTLYAPGGYDIMGYLDQIGNRPNPQVELGPVDTSCALILCDLKQKDTPIVYASEAFLYMTGYSNAEVLGRNCRFLQSPDGMVKPKSTRKYVDSNTINTIRKAIDRNAEVQVEVVNFKKNGQRFVNFLTIIPVRDETGEYRYSMGFQCETEMVSELIKENMPMKLYMEGTVNNHHFKCTSEGEGKPYEGTQTMRIKVVEGGPLPFAFDILATSFMYGSRTFIKHPPGIPDFFKQSFPEGFTWERVTTYEDGGVLTATQDTSLQDGCLIYNVKVRGVNFPANGPVMQKKTLGWEASTETMYPADGGLEGACDMALKLVGGGHLICNLETTYRSKKPATNLKMPGVYNVDHRLERIKEADDETYVEQHEVAVARYSTGGAGDGGK
With B1, the binding result was “binds”.

The record behind these values is patent publication US20190092839A1.
